Experimental data from patent publication US20060004086A1, “Method of reducing Abeta42 and treating diseases” (Mayo Foundation for Medical Education and Research, priority 2000, published 2006).

Legend:
[1] = tested on: Aβ42 secretion; assay: Aβ40/Aβ42 ELISA of culture supernatants, CHO cells expressing APP751; type: cell-based, Chinese hamster; settings: concentrations up to 400 μM
Experimental: Cell cultures were maintained in standard cell culture media supplemented with 10% fetal bovine serum and 100 U/mL penicillin/streptomycin (Life Technologies Inc., Germany).
For analyses of Aβ secretion, APP processing, and notch cleavage, cells were cultured in serum-containing media and pretreated overnight with a specific NSAID. The next day, media were changed and cultures were treated with the same NSAID for another 24 hours.
Aβ was detected by sandwich enzyme-linked immunosorbent assay (ELISA) as described by Murphy et al. (2000) J Biol Chem 275:26277-84. Following NSAID treatment, culture supernatants were collected, and cell debris was removed by centrifugation. Complete protease inhibitor cocktail (Roche Molecular Biochemicals, IN, USA) was added to the media and Aβ40 and Aβ42 levels were quantified using end-specific Aβ ELISAs. All measurements were performed in duplicate.
The effect of sulindac sulfone on Aβ42 secretion was examined. Sulindac sulfone is an oxidation product of the pro-drug sulindac. […] Cell cultures were treated with increasing concentrations of sulindac sulfone. Aβ40 and Aβ42 levels in culture supernatants were analyzed using ELISA.
(§1) Aβ40 and Aβ42 levels in cell culture supernatants were analyzed using ELISA. Aβ42/Aβ40 ratios and total Aβ levels were normalized to values obtained from DMSO-treated cultures. […] NSAIDs were verified using NMR and mass spectrometry.

[2] = tested on: Aβ42 secretion; assay: Non-selective and selective COX-inhibitors tested for effect on Aβ42 levels in cell cultures (Table 1 summary); type: cell-based; settings: effect up to the highest conc. tested listed per drug in Table 1
Experimental: All measurements were performed in duplicate.
as §1

[3] = tested on: brain Aβ42 levels in Tg2576 mice; assay: Acute oral dosing of three-month-old Tg2576 mice, brain Aβ ELISA; type: in vivo, mouse
Experimental: NSAIDs were dissolved in an appropriate vehicle. Dimethyl sulfoxide (DMSO), ethanol, and ethyl acetate are some examples. The NSAID solution was mixed with Kool-Aid and administered orally using a medicine dropper. […] At two hours after the final doses were administered, animals were sacrificed, and SDS soluble Aβ40 and Aβ42 were analyzed using ELISA.
Three month old mice have high levels of soluble Aβ in the brain but no Aβ deposition (see Hsiao et al. (1996) Science 274:99-102). […] Brain levels of SDS-soluble Aβ40 and Aβ42 were measured using ELISA.
Compounds were administered orally.

[4] = plasma concentration of the drug; cited from earlier work
[5] = tested on: COX-1/COX-2; settings: cited from earlier work
[6] = three month-old, 50 mg/kg/day orally for three days, SDS-soluble, mean ± SD

COc1ccc2cc([C@H](C)C(=O)O)ccc2c1 [Naproxen, naproxen]
Aβ42/Aβ40 ratios [1]: did not change Aβ42/Aβ40 ratios | Aβ42/Aβ40 ratio [2]: no effect | Brain levels of Aβ40 [3, 6]: 2786 ± 179 fmol/gm | Brain levels of Aβ42 [3, 6]: 1182 ± 93 fmol/gm | % Aβ42 in brain ([3]; three month-old, 50 mg/kg/day orally for three days, mean ± SD): 29.8 ± 1.6% | reduction in Aβ42 levels in the brain ([3]; treatment for three days, 50 mg/kg/day): No reduction | Plasma [4]: 1.3 µM | COX-1/COX-2 selectivity# (1 = equal activity) [5]: 1.79
